Laboratory results published in publication PMC11948057.

Protein sequences, listed by entry. Tags and fused reporters are not part of them. Lines headed by an entry give the natural chain unless they say otherwise; changes in a name come on top.
UniProt Q6K3B2: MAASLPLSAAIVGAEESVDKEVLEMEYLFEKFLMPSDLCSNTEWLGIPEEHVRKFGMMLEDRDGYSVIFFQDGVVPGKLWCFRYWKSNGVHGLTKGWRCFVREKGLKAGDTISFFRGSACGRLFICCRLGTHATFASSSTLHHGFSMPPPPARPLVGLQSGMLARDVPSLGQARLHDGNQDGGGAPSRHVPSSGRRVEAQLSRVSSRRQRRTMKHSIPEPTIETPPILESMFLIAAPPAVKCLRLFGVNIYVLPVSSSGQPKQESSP
UniProt Q336P5: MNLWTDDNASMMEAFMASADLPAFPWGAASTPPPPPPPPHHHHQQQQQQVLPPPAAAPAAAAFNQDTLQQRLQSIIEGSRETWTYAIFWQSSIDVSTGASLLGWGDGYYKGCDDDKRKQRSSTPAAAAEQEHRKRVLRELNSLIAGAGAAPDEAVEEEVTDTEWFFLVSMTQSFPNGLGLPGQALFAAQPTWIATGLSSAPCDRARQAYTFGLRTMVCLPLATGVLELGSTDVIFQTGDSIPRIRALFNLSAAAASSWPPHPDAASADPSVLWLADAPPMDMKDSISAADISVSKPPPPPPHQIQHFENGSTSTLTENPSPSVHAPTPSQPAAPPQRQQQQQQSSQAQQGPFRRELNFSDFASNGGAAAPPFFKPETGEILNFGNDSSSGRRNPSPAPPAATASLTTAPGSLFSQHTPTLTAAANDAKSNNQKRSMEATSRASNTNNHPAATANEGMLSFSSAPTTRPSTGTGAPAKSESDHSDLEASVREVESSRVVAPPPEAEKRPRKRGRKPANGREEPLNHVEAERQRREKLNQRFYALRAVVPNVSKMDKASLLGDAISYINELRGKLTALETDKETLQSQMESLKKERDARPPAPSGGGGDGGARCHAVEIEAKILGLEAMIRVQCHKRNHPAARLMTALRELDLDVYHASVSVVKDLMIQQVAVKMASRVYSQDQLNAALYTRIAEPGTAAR

Molecular target: OsRAV15-MYC in transgenic rice (OsRAV15-2#) (rice) (UniProt Q6K3B2)
Assay: affinity purification with mass spectrometry; IP-MS from NIP and OsRAV15 overexpressing rice plants

## OsMYC2 (endogenous in rice) (from UniProt Q336P5 1-699)
  binding: binds

These are yes or no findings as the source states them, for the method shown. In cells and extracts the contact can be indirect. These calls come from enrichment with a bait or labelling near it, and not all partners need be listed.
